Measured values reported in US20100329980A1 (GENE TECHNO SCIENCE, published 2010).
These are yes or no findings as the source states them, for the method shown. Some entries that bind do so weakly or less than the wild type.

T1: human α9 integrin (human) (UniProt Q13797)
T1 sequence: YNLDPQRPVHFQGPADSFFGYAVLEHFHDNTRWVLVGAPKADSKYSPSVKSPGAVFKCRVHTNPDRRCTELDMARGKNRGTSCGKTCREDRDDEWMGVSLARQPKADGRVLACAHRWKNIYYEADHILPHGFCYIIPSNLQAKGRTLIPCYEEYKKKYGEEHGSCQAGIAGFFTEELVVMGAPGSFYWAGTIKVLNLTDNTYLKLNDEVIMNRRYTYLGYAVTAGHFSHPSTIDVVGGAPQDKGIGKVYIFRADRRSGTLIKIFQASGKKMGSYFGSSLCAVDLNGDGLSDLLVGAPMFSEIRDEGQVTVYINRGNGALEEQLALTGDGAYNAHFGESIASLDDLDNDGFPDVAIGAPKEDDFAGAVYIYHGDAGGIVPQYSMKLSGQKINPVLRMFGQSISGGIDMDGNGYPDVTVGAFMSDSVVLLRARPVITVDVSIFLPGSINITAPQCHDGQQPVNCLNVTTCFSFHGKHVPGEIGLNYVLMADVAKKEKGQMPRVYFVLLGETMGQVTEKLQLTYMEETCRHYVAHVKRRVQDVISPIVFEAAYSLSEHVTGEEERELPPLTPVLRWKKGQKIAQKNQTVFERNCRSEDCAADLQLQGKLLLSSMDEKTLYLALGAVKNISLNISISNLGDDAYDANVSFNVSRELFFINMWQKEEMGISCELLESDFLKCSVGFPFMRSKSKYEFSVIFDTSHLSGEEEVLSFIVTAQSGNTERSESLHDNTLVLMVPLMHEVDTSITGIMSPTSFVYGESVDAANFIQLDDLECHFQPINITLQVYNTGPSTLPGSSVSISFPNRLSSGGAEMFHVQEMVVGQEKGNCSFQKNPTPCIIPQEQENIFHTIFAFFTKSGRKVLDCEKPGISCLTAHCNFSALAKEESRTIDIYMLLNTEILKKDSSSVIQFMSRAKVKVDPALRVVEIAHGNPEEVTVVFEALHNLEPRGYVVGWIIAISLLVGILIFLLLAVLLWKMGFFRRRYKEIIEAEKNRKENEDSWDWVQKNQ


Columns and labels:
[1] = target: T1, human α9 integrin (human); test: hybridoma screening on transfected CHO-K1 cells
[2] = target: T1, human α9 integrin (human); test: FACS on Human α9/CHO-K1 cells and human neutrophils, FITC-labeled anti-mouse IgG secondary
[3] = target: T1, human α9 integrin (human); test: FACS on CHO/huα9 cells, FITC anti-human IgG
[4] = target: T1, human α9 integrin (human); test: cell ELISA on CHO/huα9 cells, HRP anti-human IgG

binding [1] | binding [2] | binding [3] | binding [4] | Binder
binds | binds |  |  | 28S1 mouse anti-human α9 integrin monoclonal antibody (FERM BP-10832) (antibody, mouse IgG1, V domains shown, Mouse IgG1 from hybridoma) VH: VKLQESGPGLVAPSQSLSITCTVSGFSLTGYGVNWVRQPPGKGLEWLGMIWGDGITEYNSALKSRLSISKDNSKSQVFLKMNSLQTDDTARYYCARDASSGYGFAYWGQGTTVTVSS VL: YIVLTQSPAIMSASLGERVTMTCTASSSVSSSYLHWYQQKPGSSPKLWIYSTSNLASGVPARFSGSGSGTSYSLTISSMEAEDAATYYCHQYHRSPYTFGGGTKLEIKR
 |  | binds | binds | humanized 24I11 IgG1/κ antibody (antibody, V domains shown) VH: QVQLVQSGAEVKKPGASVKVSCKASGFNIKDTYVHWVRQAPGQRLEWIGNIDPANGNTKYDPKFQGKATITADTSASTAYMELSSLRSEDTAVYYCARWLRHFYYAMDYWGQGTLVTVSS VL: DIQMTQSPSSLSASVGDRVTITCRASENIYYSLAWYQQKPGKAPKLLIYNANSLEDGVPSRFSGSGSGTQYTLTISSLQPEDFATYYCKQAYDVPYTFGQGTKVEIK
